Experimental data: PubChem BioAssay AID504786 (Drosophila RNAi Screening Center, 2011)

- Test: 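Fly genes required for HIF-dependent transcription when hypoxia is mimicked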 (primary screen)
- Cells: Drosophila S2 cells with a stable HIF luciferase reporter
- Reagents: long dsRNA against Drosophila genes, about 0.2 µg dsRNA per well of a 384-well plate
- Time to read-out: three days of knock-down, then 20 h of DFO before reading
- Treatment: desferrioxamine (DFO) at 100 µM, an iron chelator that mimics hypoxia, for 20 h
- Detection: 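Firefly luciferase driven by the mouse ldh-a hypoxia-response element, measured after 20 h of 100 µM DFO; z-scores per plate, higher means more signal lost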
- Direction: z-score: higher = stronger loss of HIF reporter signal
The screen tested about 21,000 reagents; below is an unselected part of those with a known target gene and a result. 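Primary screen; positive scores mean lost reporter signal, so the sign may be inverted from the usual convention.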 Reagents against one gene are numbered here. Names joined by + are all predicted targets of the reagent. Further read-outs or replicates are left out here.

CG17271
- z-score, replicate 1: -0.3

CG4570
- z-score, replicate 1: 4.1

Kank #1
- z-score, replicate 1: -0.1

Kank #2
- z-score, replicate 1: -0.3

scny #1
- z-score, replicate 1: -0.1

scny #2
- z-score, replicate 1: -0.1

HLH4C
- z-score, replicate 1: -0.1

CG14410
- z-score, replicate 1: -0.4

Cpr97Eb
- z-score, replicate 1: -0.5

CG31086 + CG31323
- z-score, replicate 1: -0.3

CG7903
- z-score, replicate 1: -0.1

CG12116
- z-score, replicate 1: -0.3

Gpdh2
- z-score, replicate 1: -0.4

CG13110
- z-score, replicate 1: 0.2

CG2750
- z-score, replicate 1: 0.2

alphaTub67C
- z-score, replicate 1: 0.6

e(r)
- z-score, replicate 1: -0.2

BEAF-32 + CG42254 (retired record)
- z-score, replicate 1: 0.5

Nup107
- z-score, replicate 1: 0.7

Acp62F
- z-score, replicate 1: -0.3

rin
- z-score, replicate 1: -0.4

Mip
- z-score, replicate 1: -0.3

Obp57e
- z-score, replicate 1: 0.3

cmb
- z-score, replicate 1: -0.4

Acp26Ab
- z-score, replicate 1: -0.5

ND2 (retired record)
- z-score, replicate 1: -0.1

crp
- z-score, replicate 1: -0.4

2 of these entries, set out differently:
predicted target,reagent no.,"z-score, replicate 1"
ND2 (retired record),1,-0.1
crp,1,-0.4
